# In patent US20080299599A1, “FLUORESCENT PROTEINS FOR MONITORING INTRACELLULAR SUPEROXIDE PRODUCTION” (priority 2006, published 2008):
# Assay: Spectral analysis of purified cpYFP: in vitro redox calibration and response to ROS and metabolites
# Type: biochemical
# Description: cpYFP cDNA (807 bp) was cloned into a prokaryotic expression vector (pRSET) and transferred into E. Coli cell line (BL21(DE3)LysS) for large-scale protein expression. In vitro redox calibration of cpYFP fluorescence was carried out using methods described previously (Hanson et al., J. Biol. Chem., 279: 13044-13053, 2004). Briefly, under an inert environment, purified cpYFP protein (1 μM) was incubated with either 10 mM reduced DTT or 1 mM aldrithiol for at least 3 hours, allowing for solution equilibration. Reduced DTT was removed from the solution allowing measurement of cpYFP response to various ROS and metabolites. The calibration solution contained (in mM): HEPES 75, KCl 125, and EDTA 1, pH=8.0. Emission and excitation spectra of reduced and oxidized cpYFP in the presence of designated reagents were obtained with a spectrofluorimeter (Model: CM1T101, HORIBA Jobin Yvon, Inc.) filled with nitrogen gas.
# Using cpYFP purified from an E. coli expression system, excitation and emission fluorescence spectra were measured in response to reducing (10 mM reduced DTT) and oxidizing manipulations (1 mM aldrithiol). […] Extensive in vitro experiments were performed to determine the selectivity of cpYFP among physiologically relevant oxidants and metabolites. […] The cpYFP signal, however, was insensitive to hydrogen peroxide (H2O2) over a wide range of concentrations (0.1-10 mM) (FIG. 1c) and peroxynitrite (FIG. 2), and was decreased by hydroxyl radicals (.OH) (FIG. 1c) and nitric oxide (FIG. 2).
substance,measurement,value
"cpYFP: circularly permuted yellow fluorescent protein; superoxide probe of SEQ ID NO. 1, pericam without calmodulin and M13 domains",emission maximum wavelength,515 nm
same,superoxide insensitive excitation wavelength (isobestic point),405 nm
same,superoxide sensitive excitation maximum wavelength,488 nm
